Laboratory results published in PubChem BioAssay AID1671190 (National Center for Advancing Translational Sciences (NCATS), 2021).
Among all 580,000 compounds or so, about 6,100 (1.1%) were called active. The inconclusive results got no clear call from the source; some entries with a clear call stand among them for comparison. The call rests on the fitted dose curve; in most records, active means well fitted inhibition curve with a large enough effect; inconclusive means small, poorly fitted or top-dose-only effect, or another doubt; inactive means no such curve, though single readings can be large or run the other way. Potencies of inconclusive entries are doubtful fits and often do not repeat.

The chains behind the UniProt entries cited, without tags or fusion partners.
UniProt P18054, whole entry, looked up: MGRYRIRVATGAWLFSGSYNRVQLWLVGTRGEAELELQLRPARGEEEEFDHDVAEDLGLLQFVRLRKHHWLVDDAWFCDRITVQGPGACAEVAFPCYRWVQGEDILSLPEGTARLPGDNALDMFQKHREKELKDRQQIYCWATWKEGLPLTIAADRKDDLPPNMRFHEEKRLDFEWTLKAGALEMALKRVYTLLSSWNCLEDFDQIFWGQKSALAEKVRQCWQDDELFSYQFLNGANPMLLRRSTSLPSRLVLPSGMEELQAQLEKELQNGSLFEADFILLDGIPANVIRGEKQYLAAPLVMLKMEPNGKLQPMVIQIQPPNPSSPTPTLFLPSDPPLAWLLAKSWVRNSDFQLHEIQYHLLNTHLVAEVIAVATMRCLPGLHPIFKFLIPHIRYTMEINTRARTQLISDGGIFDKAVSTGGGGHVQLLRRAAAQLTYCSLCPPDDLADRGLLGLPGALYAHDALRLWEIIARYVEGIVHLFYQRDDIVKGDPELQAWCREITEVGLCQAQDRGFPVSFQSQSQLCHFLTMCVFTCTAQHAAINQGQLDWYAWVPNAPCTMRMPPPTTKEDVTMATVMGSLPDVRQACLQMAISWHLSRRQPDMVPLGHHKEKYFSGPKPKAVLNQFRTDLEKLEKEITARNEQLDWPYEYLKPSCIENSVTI

Target: Polyunsaturated fatty acid lipoxygenase ALOX12 (Homo sapiens) (UniProt P18054)
Assay: Primary qHTS assay for inhibitors of human arachidonate 12S-lipoxygenase (ALOX12): Round 2
Conditions: purified 12hLO, xylenol orange hydroperoxide absorbance; activity change, negative = inhibition: at 108 µM (top of the series) unless noted
How it was run: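 Hydroperoxide product was detected by ferrous iron/xylenol orange as the 573 to 405 nm absorbance ratio. Arachidonic acid at 40 uM (final) was turned over for 30 min at room temperature by 150 nM human 12hLO, pH 7.0 Hepes buffer, after 15 min compound preincubation.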
On the % scale 0 is the no-effect control and ±100 the full control effect; potency means the concentration at half of the fitted maximal effect.

Row | Compound | Potency | activity change, negative = inhibition
1 | CCc1ccc2oc(-c3ccc(OC)cc3)cc(=Nc3cccc(C(=O)O)c3)c2c1 | inconclusive: 50.1 µM [inhibitor, partial curve, poor fit] | 
2 | COc1cc(NC(=O)C2(n3cnnn3)CCCCC2)cc(OC)c1 | inconclusive: 112 µM [inhibitor, single point] | 
3 | CC(=O)NCCNc1ncnc2ccc(-c3ccccc3Cl)cc12 | active: 31.6 µM | 
4 | CNC(=O)c1cn2c(n1)CN([S+](=O)([O-])c1c(C)noc1C)CC2 |  | inactive: 1.31% [at 6.33 µM]
5 | CCOC(=O)C1=C(C)N(c2ccc(C)cc2)C(=O)/C1=C\c1ccc(O)c(OC)c1 | inconclusive: 31.6 µM [inhibitor, partial curve, poor fit] | 
6 | CC(=O)C1=C(O)C(=O)N(c2ccc(Br)cn2)C1c1cccc([N+](=O)[O-])c1 (stereo not given) | inactive | 
7 | O=C(CC(c1cccs1)N1Cc2ccccc2C1=O)Nc1ccc(F)cc1F (stereo not given) | inconclusive: 100 µM [inhibitor, partial curve, poor fit] | 
8 | Cc1noc(C)c1S(=O)(=O)N(C)C[C@H]1OCCCC[C@@H](C)Oc2ccc(NS(=O)(=O)c3cn(C)cn3)cc2C(=O)N([C@H](C)CO)C[C@@H]1C | inconclusive: 35.5 µM [inhibitor, partial curve, poor fit] | 
9 | COc1cc(NC(=O)CN2C(=O)C(c3ccc(Cl)cc3)=NC23CCCCC3)cc(OC)c1 | inconclusive: 31.6 µM [inhibitor, partial curve, poor fit] | 
10 | Cc1ccccc1C(=O)N[C@@H](Cc1cccnc1)C(=O)N1CCC[C@H]1C(=O)NC1CCCC1 | inactive | 
11 | COc1ccc(C(=O)NCc2c(C)nn(Cc3ccccc3)c2C)cc1S(=O)(=O)N1CCOCC1 | inactive | 
12 | CC(C)c1ccc(C2c3c(oc4ccc(Cl)cc4c3=O)C(=O)N2CCCN2CCOCC2)cc1 (stereo not given) | inconclusive: 50.1 µM [inhibitor, partial curve, poor fit] | 
13 | Cc1ccc(C2=CC(c3ccc(Cl)cc3)n3nc(-c4ccc(C)cc4)nc3N2)cc1 (stereo not given) | inconclusive: 141 µM [inhibitor, partial curve, poor fit] | 
14 | Cc1cc(C)cc(NC(=S)NC(=O)Cc2ccccc2)c1 | inconclusive: 79.4 µM [inhibitor, partial curve, poor fit] | 
15 | O=C(c1cccc(C(F)(F)F)c1)N1CCc2c([nH]c3ccccc23)C1C(F)(F)F (stereo not given) | inconclusive: 89.1 µM [inhibitor, partial curve, poor fit] | 
16 | CCOC(=O)C1=CN(Cc2ccco2)S(=O)(=O)NC1CC (stereo not given) | inconclusive: 0.501 µM [inhibitor, partial curve, poor fit] | 
17 | CCOc1ccc(Nc2nc(-c3ccc(C)c(C)c3)cs2)cc1 | inconclusive: 3.98 µM [inhibitor, full curve, poor fit] | 
18 | Cc1ccc(C(=O)N2CCC3(CC2)NC(=O)N(c2ccc(F)cc2)N3)c(C)c1 | inconclusive: 10 µM [inhibitor, full curve, poor fit] | 
19 | CCCCCCCCNC(=O)/C(C#N)=C\C=C\c1ccccc1 | inconclusive: 28.2 µM [inhibitor, single point] | 
20 | O=C(Nc1cccc(Cl)c1)c1cnc(N2CCCCC2)c2ccccc12 | inactive | 
21 | Cc1ccccc1CSCCNC(=O)C1CCN(S(=O)(=O)Cc2ccccc2)CC1 |  | inconclusive: -37.7% [inhibitor]
22 | CCOC(=O)c1c(SCC(=O)Nc2ccc(F)cc2F)nc(=O)[nH]c1C | inconclusive: 100 µM [inhibitor, single point] | 

Sorted by SMILES length (largest number first): 3 of the compounds above
Row | Compound | Potency | activity change, negative = inhibition
10 | Cc1ccccc1C(=O)N[C@@H](Cc1cccnc1)C(=O)N1CCC[C@H]1C(=O)NC1CCCC1 | inactive | 
13 | Cc1ccc(C2=CC(c3ccc(Cl)cc3)n3nc(-c4ccc(C)cc4)nc3N2)cc1 (stereo not given) | inconclusive: 141 µM [inhibitor, partial curve, poor fit] | 
18 | Cc1ccc(C(=O)N2CCC3(CC2)NC(=O)N(c2ccc(F)cc2)N3)c(C)c1 | inconclusive: 10 µM [inhibitor, full curve, poor fit] | 

Continued.

Row | Compound | Potency | activity change, negative = inhibition
23 | CCC(C)N(C(=O)CSc1nc(C)nc2ccccc12)C1CCS(=O)(=O)C1 (stereo not given) | inconclusive: 112 µM [inhibitor, single point] | 
24 | O=[N+]([O-])c1ccc(C2CC(c3ccccc3)=Nc3ccccc3S2)cc1 (stereo not given) | inconclusive: 50.1 µM [inhibitor, partial curve, poor fit] | 
25 | NS(=O)(=O)c1ccc(CCNC(=O)C2CCN(S(=O)(=O)c3cnc[nH]3)CC2)cc1 | inactive | 
26 | COCCN(C(=O)COc1ccc(Cl)cc1)c1nnc(-c2cccnc2)s1 | inconclusive: 31.6 µM [inhibitor, partial curve, poor fit] | 
27 | CCCCCc1ccc(OCCCC[n+]2cccc(C)c2)c(CCCCC)c1 | inconclusive: 39.8 µM [inhibitor, partial curve, poor fit] | 
28 | Cc1ccc(CSc2nnc(CCCCCNC(=O)OC(C)(C)C)o2)cc1 | inactive | 
29 | Cc1cccc(N2CCN(C(=O)CNC(=O)c3cccc([N+](=O)[O-])c3)CC2)c1C | inactive | 
30 | Cc1cccc(C(=O)NNC(=O)/C=C/C(=O)O)c1 | inactive | 
31 | Cc1ccc(NC(=O)CSC2=C(C#N)C(c3ccc4c(c3)OCO4)C3=C(CCCC3=O)N2)c(C)c1 (stereo not given) | inconclusive: 22.4 µM [inhibitor, full curve] | 
32 | O=C(COC(=O)c1cc(=O)[nH]c2ccccc12)Nc1ccc(Cl)c(S(=O)(=O)N2CCOCC2)c1 | inconclusive: 50.1 µM [inhibitor, partial curve, poor fit] | 
33 | N#CCSc1n[nH]c2nc3c(c(=O)n12)C1(CCCCC1)Cc1ccccc1-3 | inactive | 
34 | O=C(C1CCCC1)N1CC2(CCN(CC3CCCCC3)C2)Cc2ccccc21 (stereo not given) | inconclusive: 10 µM [inhibitor, partial curve, poor fit] | 
35 | Cc1ccc(OCC(=O)NNC(=O)CCc2ccccc2)c(Br)c1 | inactive | 
36 | CS(=O)(=O)c1ccc(-c2csc(C(O)(c3ccccc3)C(F)(F)F)n2)cc1 (stereo not given) | inconclusive: 44.7 µM [inhibitor, single point] | 
37 | Cc1c(NC(=O)COC(=O)C2(c3ccc(F)cc3)CCCC2)c(=O)n(-c2ccccc2)n1C | inconclusive: 100 µM [inhibitor, single point] | 
38 | CC(C)=CC1C=C(C)C(C)C(c2ccccc2)C1C(=O)c1ccccc1 (stereo not given) | inactive | 
39 | O=C(Nc1ccc(Br)cc1)C1CC=CCC1C(=O)OCC1CCCO1 (stereo not given) | inconclusive: 14.1 µM [inhibitor, partial curve, poor fit] | 
40 | COCCN1CN=C(Nc2nc(C)c3ccccc3n2)NC1 | inactive | 
41 | O=S(=O)(CS(=O)(=O)Oc1ccccc1)Oc1ccccc1 | inconclusive: 39.8 µM [inhibitor, partial curve] | 
42 | S=C(NCCCN1CCOCC1)Nc1ccc(Cl)cc1Cl | inconclusive: 100 µM [inhibitor, partial curve, poor fit] | 
43 | Cc1ccc(CNC(=O)c2cc(-c3ccc(C)o3)nc3ccccc23)cc1 | active: 3.16 µM | 
44 | CCOC(=O)Cc1ccc(NC(=O)Nc2nnc(N3CCCC3)s2)cc1 | inactive | 

Row | Compound | Potency | activity change, negative = inhibition
45 | CCc1c(C)sc(NC(=O)CCCl)c1C#N | inconclusive: 31.6 µM [inhibitor, partial curve] | 
46 | Fc1cc(F)c2nc(Nc3nc4cc5c(cc4s3)OCO5)sc2c1 | inactive | 
47 | Cc1ccc(C(=O)Nc2nc(=O)n(C(=O)c3ccccc3Cl)s2)cc1 | inconclusive: 39.8 µM [inhibitor, single point] | 
48 | CC(C)(C)OC(=O)NCc1ccc(CNC(=O)c2ncn(Cc3ccccc3)c2C(=O)NCc2ccc(CNC(=O)OC(C)(C)C)cc2)cc1 | inactive | 
49 | c1ccc(NCC2CN(Cc3ccccn3)CC23CN(c2ccccc2)C3)cc1 (stereo not given) | inactive | 
50 | O=C(NC1CC1)c1cccc2c1C(=O)c1ccc(N3CCC(N4CCCCC4)CC3)cc1S2(=O)=O | inactive | 
51 | Cc1cnc(NC(=O)CN2CCN(c3ccccc3F)CC2)s1 | inconclusive: 6.31 µM [inhibitor, partial curve, poor fit] | 
52 | CCCOc1ccc(C(C(=O)OCCN(CC)CC)c2ccccc2)cc1 (stereo not given) | inconclusive: 0.631 µM [inhibitor, full curve, poor fit] | 
53 | Cc1ccc(C(=O)NC(=S)Nc2ccc(S(=O)(=O)N3CCN(C)CC3)cc2)cc1 | inconclusive: 28.2 µM [inhibitor, partial curve, poor fit] | 
54 | COc1ccc(NC(=O)CC(C)n2cccn2)cc1Cl (stereo not given) | inactive | 
55 | CN1CCN(c2ccc(NC(=O)COc3ccccc3[N+](=O)[O-])cc2)CC1 | inconclusive: 63.1 µM [inhibitor, partial curve, poor fit] | 
56 | O=C(OCc1cn([C@H]2C[C@H](c3ccccc3)N(CC3CCCCC3)C[C@@H]2O)nn1)c1ccccc1 | inconclusive: 100 µM [inhibitor, single point] | 
57 | CN1CCN(c2ccc(S(=O)(=O)N3CCCCC3)cc2NC(=O)COc2ccc(F)cc2)CC1 | inconclusive: 100 µM [inhibitor, single point] | 
58 | O=C(c1cc(=O)[nH]c2ccccc12)N1CCN(S(=O)(=O)c2ccc(Cl)cc2)CC1 | inactive | 
59 | CCn1c2ccccc2c2cc(/C(C)=N/O)ccc21 | inconclusive: 1.12 µM [inhibitor, full curve, poor fit] | 
60 | COC(=O)C1=C/C=C\CN(C(c2ccccc2)c2ccccc2)/C=C\1C(=O)OC | inconclusive: 39.8 µM [inhibitor, partial curve, poor fit] | 
61 | Cn1nc(C(=O)OCC(=O)NC(C)(C)C)c2ccccc2c1=O | inactive | 
62 | Cc1cccc(NC(=S)NCC23C=CC(O2)C2C(=O)N(c4ccc(Cl)cc4)C(=O)C23)c1 (stereo not given) | inconclusive: 44.7 µM [inhibitor, partial curve, poor fit] | 
63 | Cc1c(C)n(Cc2ccccc2)c2ncnc(N)c12 | inactive | 
64 | COc1ccc(N(C(=O)c2snc(C(N)=O)c2N)C(C(=O)NCC2CCCO2)c2ccc(C)o2)cc1OC (stereo not given) | inactive | 
65 | O=S(=O)(Nc1ccccc1O)c1ccc(Cl)nc1 | inconclusive: 4.47 µM [inhibitor, single point] | 
